In patent publication US9081020B2, “Mutant proteins and methods for selecting them” (Heptares Therapeutics Limited, priority 2008, dated 2015):
Entries after “also recorded” stand apart in the source; their conditions may differ. The name of at least one read-out is uncertain. Some compounds share one wording; it may come from a single statement.

B1: L65A: M1 mAChR mutant L65A (TM2); background and internal control in Example 3 (protein, UniProt P11229 1-460, looked up, variant L65A)
Muscarinic acetylcholine …: MNTSAPPAVSPNITVLAPGKGPWQVAFIGITTGLLSLATVTGNLLVLISFKVNTELKTVNNYFLASLACADLIIGTFSMNLYTTYLLMGHWALGTLACDLWLALDYVASNASVMNLLLISFDRYFSVTRPLSYRAKRTPRRAALMIGLAWLVSFVLWAPAILFWQYLVGERTVLAGQCYIQFLSQPIITFGTAMAAFYLPVTVMCTLYWRIYRETENRARELAALQGSETPGKGGGSSSSSERSQPGAEGSPETPPGRCCRCCRAPRLLQAYSWKEEEEEDEGSMESLTSSEGEEPGSEVVIKMPMVDPEAQAPTKQPPRSSPNTVKRPTKKGRDRAGKGQKPRGKEQLAKRKTFSLVKEKKAARTLSAILLAFILTWTPYNIMVLVSTFCKDCVPETLWELGYWLCYVNSTINPMCYALCNKAFRDTFRLLLLCRWDKRRWRKIPKRPGSVHRTPSRQC
B2: L65V: M1 mAChR mutant L65V selected from random mutagenesis screen (protein)
chain: MNTSAPPAVSPNITVLAPGKGPWQVAFIGITTGLLSLATVTGNLLVLISFKVNTELKTVNNYFLVSLACADLIIGTFSMNLYTTYLLMGHWALGTLACDLWLALDYVASNASVMNLLLISFDRYFSVTRPLSYRAKRTPRRAALMIGLAWLVSFVLWAPAILFWQYLVGERTVLAGQCYIQFLSQPIITFGTAMAAFYLPVTVMCTLYWRIYRETENRARELAALQGSETPGKGGGSSSSSERSQPGAEGSPETPPGRCCRCCRAPRLLQAYSWKEEEEEDEGSMESLTSSEGEEPGSEVVIKMPMVDPEAQAPTKQPPRSSPNTVKRPTKKGRDRAGKGQKPRGKEQLAKRKTFSLVKEKKAARTLSAILLAFILTWTPYNIMVLVSTFCKDCVPETLWELGYWLCYVNSTINPMCYALCNKAFRDTFRLLLLCRWDKRRWRKIPKRPGSVHRTPSRQC
B3: L65A + M145A: M1 mAChR double mutant (protein)
chain: MNTSAPPAVSPNITVLAPGKGPWQVAFIGITTGLLSLATVTGNLLVLISFKVNTELKTVNNYFLASLACADLIIGTFSMNLYTTYLLMGHWALGTLACDLWLALDYVASNASVMNLLLISFDRYFSVTRPLSYRAKRTPRRAALAIGLAWLVSFVLWAPAILFWQYLVGERTVLAGQCYIQFLSQPIITFGTAMAAFYLPVTVMCTLYWRIYRETENRARELAALQGSETPGKGGGSSSSSERSQPGAEGSPETPPGRCCRCCRAPRLLQAYSWKEEEEEDEGSMESLTSSEGEEPGSEVVIKMPMVDPEAQAPTKQPPRSSPNTVKRPTKKGRDRAGKGQKPRGKEQLAKRKTFSLVKEKKAARTLSAILLAFILTWTPYNIMVLVSTFCKDCVPETLWELGYWLCYVNSTINPMCYALCNKAFRDTFRLLLLCRWDKRRWRKIPKRPGSVHRTPSRQC
B4: L65A + L151A: M1 mAChR double mutant (protein)
chain: MNTSAPPAVSPNITVLAPGKGPWQVAFIGITTGLLSLATVTGNLLVLISFKVNTELKTVNNYFLASLACADLIIGTFSMNLYTTYLLMGHWALGTLACDLWLALDYVASNASVMNLLLISFDRYFSVTRPLSYRAKRTPRRAALMIGLAWAVSFVLWAPAILFWQYLVGERTVLAGQCYIQFLSQPIITFGTAMAAFYLPVTVMCTLYWRIYRETENRARELAALQGSETPGKGGGSSSSSERSQPGAEGSPETPPGRCCRCCRAPRLLQAYSWKEEEEEDEGSMESLTSSEGEEPGSEVVIKMPMVDPEAQAPTKQPPRSSPNTVKRPTKKGRDRAGKGQKPRGKEQLAKRKTFSLVKEKKAARTLSAILLAFILTWTPYNIMVLVSTFCKDCVPETLWELGYWLCYVNSTINPMCYALCNKAFRDTFRLLLLCRWDKRRWRKIPKRPGSVHRTPSRQC
B5: I383/21: Sequencing established that I383/21 is I383G (M1 mAChR) (protein, UniProt P11229 1-460, looked up, variant I383G)
Muscarinic acetylcholine …: MNTSAPPAVSPNITVLAPGKGPWQVAFIGITTGLLSLATVTGNLLVLISFKVNTELKTVNNYFLLSLACADLIIGTFSMNLYTTYLLMGHWALGTLACDLWLALDYVASNASVMNLLLISFDRYFSVTRPLSYRAKRTPRRAALMIGLAWLVSFVLWAPAILFWQYLVGERTVLAGQCYIQFLSQPIITFGTAMAAFYLPVTVMCTLYWRIYRETENRARELAALQGSETPGKGGGSSSSSERSQPGAEGSPETPPGRCCRCCRAPRLLQAYSWKEEEEEDEGSMESLTSSEGEEPGSEVVIKMPMVDPEAQAPTKQPPRSSPNTVKRPTKKGRDRAGKGQKPRGKEQLAKRKTFSLVKEKKAARTLSAILLAFILTWTPYNGMVLVSTFCKDCVPETLWELGYWLCYVNSTINPMCYALCNKAFRDTFRLLLLCRWDKRRWRKIPKRPGSVHRTPSRQC
B6: M384/40: Sequencing established that M384/40 is M384G (M1 mAChR) (protein, UniProt P11229 1-460, looked up, variant M384G)
Muscarinic acetylcholine …: MNTSAPPAVSPNITVLAPGKGPWQVAFIGITTGLLSLATVTGNLLVLISFKVNTELKTVNNYFLLSLACADLIIGTFSMNLYTTYLLMGHWALGTLACDLWLALDYVASNASVMNLLLISFDRYFSVTRPLSYRAKRTPRRAALMIGLAWLVSFVLWAPAILFWQYLVGERTVLAGQCYIQFLSQPIITFGTAMAAFYLPVTVMCTLYWRIYRETENRARELAALQGSETPGKGGGSSSSSERSQPGAEGSPETPPGRCCRCCRAPRLLQAYSWKEEEEEDEGSMESLTSSEGEEPGSEVVIKMPMVDPEAQAPTKQPPRSSPNTVKRPTKKGRDRAGKGQKPRGKEQLAKRKTFSLVKEKKAARTLSAILLAFILTWTPYNIGVLVSTFCKDCVPETLWELGYWLCYVNSTINPMCYALCNKAFRDTFRLLLLCRWDKRRWRKIPKRPGSVHRTPSRQC
B7: L399M: M1 mAChR mutant isolated by in-situ destabilisation screening of receptors randomised at position L399 (protein)
chain: MNTSAPPAVSPNITVLAPGKGPWQVAFIGITTGLLSLATVTGNLLVLISFKVNTELKTVNNYFLLSLACADLIIGTFSMNLYTTYLLMGHWALGTLACDLWLALDYVASNASVMNLLLISFDRYFSVTRPLSYRAKRTPRRAALMIGLAWLVSFVLWAPAILFWQYLVGERTVLAGQCYIQFLSQPIITFGTAMAAFYLPVTVMCTLYWRIYRETENRARELAALQGSETPGKGGGSSSSSERSQPGAEGSPETPPGRCCRCCRAPRLLQAYSWKEEEEEDEGSMESLTSSEGEEPGSEVVIKMPMVDPEAQAPTKQPPRSSPNTVKRPTKKGRDRAGKGQKPRGKEQLAKRKTFSLVKEKKAARTLSAILLAFILTWTPYNIMVLVSTFCKDCVPETMWELGYWLCYVNSTINPMCYALCNKAFRDTFRLLLLCRWDKRRWRKIPKRPGSVHRTPSRQC

Each molecule was assayed on M1 mAChR (assay: stability of 3H-NMS-labelled receptors after full solubilisation of E. coli spheroplast membranes in 1% β-octyl glucoside). Conditions: 4° C., with respect to wild-type.
Type: physicochemical

Molecule | stability after full solubilisation, in words
B1 | enhanced stability
B2 | enhanced stability
B3 | further enhanced
B4 | further enhanced
B5 | enhanced stability
B6 | enhanced stability
B7 | enhanced stability; also recorded: further increment of stability
